Data as given in PubChem BioAssay AID1053208 (Peter MacCallum Cancer Centre, 2014).

- Screen: 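Find knock-downs that sensitise mouse osteosarcoma cells to doxorubicin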 (primary screen)
- Cell system: mouse osteosarcoma cells, early-passage culture from an engineered mouse model of fibroblastic bone tumour
- Knock-down reagent: siRNA pool against mouse genes, 40 nM
- Timing: about 120 h (48 h before drug, then 72 h with drug)
- Conditions: doxorubicin 100 nM for 72 h, roughly 30-40% inhibitory dose
- Detection: 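Luminescent ATP signal taken as viability with or without 100 nM doxorubicin for 72 h; mean of two wells set against non-targeting siRNA and turned into robust z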
- Scale: viability z-score with doxorubicin and doxorubicin viability vs non-targeting: higher = more viable cells under doxorubicin; viability z-score without drug: higher = more viable cells with knock-down alone; z-score of drug to no-drug ratio: higher = less drug sensitisation by knock-down
- Active means: 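a pool counts as active when its viability z-score with doxorubicin is -2 or below and its z-score without drug lies between -2 and 2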
This is one part, drawn at random, of about 17,000 reagents tested. 788 of all reagents (4.7%) count as active. 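Calls rest on z-score classes alone; an extra cut-off of viability at most 70% of control was not applied to them.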 No sequences are given here.

no.	Target gene	combined z-score class	viability z-score with doxorubicin	viability z-score without drug	z-score of drug to no-drug ratio	doxorubicin viability vs non-targeting	Outcome
1	Rabl2 (GeneID 68708)	no change with or without drug	0.22	-0.67	0.79	0.96	inactive
2	Tlr4 (GeneID 21898)	no change with or without drug	-1.01	-0.51	-0.67	0.85	inactive
3	Adi1 (GeneID 104923)	no change with or without drug	0	0.17	0	0.94	inactive
4	Ndst1 (GeneID 15531)	no change with or without drug	-0.34	-1.52	0.9	0.91	inactive
5	Dis3l2 (GeneID 208718)	high cell count without drug only	1.57	2.19	0.22	1.08	inactive
6	9330140K16RIK	low cell count with and without drug	-4.05	-3.71	-2.14	0.58	inactive
7	Pbk (GeneID 52033)	no change with or without drug	1.8	0.34	1.69	1.1	inactive
8	Spata32 (GeneID 328019)	no change with or without drug	0.45	-1.35	1.69	0.98	inactive
9	4921536K21Rik (GeneID 67430)	low cell count with doxorubicin only	-2.36	0.34	-2.59	0.73	active
10	Cbln1 (GeneID 12404)	no change with or without drug	-0.56	0	-0.45	0.89	inactive
11	Btn2a2 (GeneID 238555)	no change with or without drug	-0.79	-0.67	-0.22	0.87	inactive
12	Atp6v1f (GeneID 66144)	no change with or without drug	-0.67	0.84	-1.12	0.88	inactive
13	Vasp (GeneID 22323)	no change with or without drug	0	-0.34	0.34	0.94	inactive
14	Or2t45 (GeneID 258531)	no change with or without drug	-1.35	0.17	-1.46	0.82	inactive
15	Wdr77 (GeneID 70465)	no change with or without drug	-0.79	-0.51	-0.34	0.87	inactive
16	Mrgprb8 (GeneID 404240)	low cell count with doxorubicin only	-2.02	-1.52	-1.12	0.76	active

A stretch from the list above:
no.	Target gene	combined z-score class	viability z-score with doxorubicin	viability z-score without drug	z-score of drug to no-drug ratio	doxorubicin viability vs non-targeting	Outcome
1	Rabl2 (GeneID 68708)	no change with or without drug	0.22	-0.67	0.79	0.96	inactive
2	Tlr4 (GeneID 21898)	no change with or without drug	-1.01	-0.51	-0.67	0.85	inactive
3	Adi1 (GeneID 104923)	no change with or without drug	0	0.17	0	0.94	inactive
4	Ndst1 (GeneID 15531)	no change with or without drug	-0.34	-1.52	0.9	0.91	inactive
5	Dis3l2 (GeneID 208718)	high cell count without drug only	1.57	2.19	0.22	1.08	inactive

The list goes on.
no.	Target gene	combined z-score class	viability z-score with doxorubicin	viability z-score without drug	z-score of drug to no-drug ratio	doxorubicin viability vs non-targeting	Outcome
17	Ust (GeneID 338362)	no change with or without drug	0	0.34	-0.11	0.94	inactive
18	9430041O17RIK	low cell count with doxorubicin only	-3.37	0.84	-3.82	0.64	active
19	Apbb1 (GeneID 11785)	no change with or without drug	0.45	0.17	0.45	0.98	inactive
20	Tchhl1 (GeneID 71325)	no change with or without drug	0.9	1.52	0	1.02	inactive
21	Atp2a1 (GeneID 11937)	no change with or without drug	-0.79	-0.84	-0.11	0.87	inactive
22	Sfr1 (GeneID 67788)	no change with or without drug	0.22	1.52	-0.67	0.96	inactive
23	Ogfod1 (GeneID 270086)	no change with or without drug	-1.8	-0.51	-1.46	0.78	inactive
24	Or4d2 (GeneID 258408)	no change with or without drug	-0.9	-1.85	0.45	0.86	inactive
25	Mllt6 (GeneID 246198)	no change with or without drug	-1.35	1.52	-2.14	0.82	inactive
26	Anxa5 (GeneID 11747)	no change with or without drug	-1.24	0.84	-1.69	0.83	inactive
27	Fstl3 (GeneID 83554)	no change with or without drug	-0.45	-0.51	0	0.9	inactive
28	Rrs1 (GeneID 59014)	no change with or without drug	0.9	0.67	0.56	1.02	inactive
29	Gpr18 (GeneID 110168)	no change with or without drug	-0.56	-0.84	0.11	0.89	inactive
30	Spag9 (GeneID 70834)	no change with or without drug	0.67	-0.17	0.9	1	inactive
31	Fbxw2 (GeneID 30050)	no change with or without drug	0.67	1.18	0	1	inactive
32	Naprt (GeneID 223646)	no change with or without drug	0.34	-0.17	0.56	0.97	inactive
33	Plvap (GeneID 84094)	no change with or without drug	-0.45	1.35	-1.24	0.9	inactive
34	Wdr5b (GeneID 69544)	no change with or without drug	1.12	0.84	0.67	1.04	inactive
